# In paper doi:10.1101/2025.09.10.675342:
# Sequences of proteins named here, by UniProt entry; tags and fusion partners are left off. Residues count along the entry.
# UniProt Q8NHL6, residues 24-650: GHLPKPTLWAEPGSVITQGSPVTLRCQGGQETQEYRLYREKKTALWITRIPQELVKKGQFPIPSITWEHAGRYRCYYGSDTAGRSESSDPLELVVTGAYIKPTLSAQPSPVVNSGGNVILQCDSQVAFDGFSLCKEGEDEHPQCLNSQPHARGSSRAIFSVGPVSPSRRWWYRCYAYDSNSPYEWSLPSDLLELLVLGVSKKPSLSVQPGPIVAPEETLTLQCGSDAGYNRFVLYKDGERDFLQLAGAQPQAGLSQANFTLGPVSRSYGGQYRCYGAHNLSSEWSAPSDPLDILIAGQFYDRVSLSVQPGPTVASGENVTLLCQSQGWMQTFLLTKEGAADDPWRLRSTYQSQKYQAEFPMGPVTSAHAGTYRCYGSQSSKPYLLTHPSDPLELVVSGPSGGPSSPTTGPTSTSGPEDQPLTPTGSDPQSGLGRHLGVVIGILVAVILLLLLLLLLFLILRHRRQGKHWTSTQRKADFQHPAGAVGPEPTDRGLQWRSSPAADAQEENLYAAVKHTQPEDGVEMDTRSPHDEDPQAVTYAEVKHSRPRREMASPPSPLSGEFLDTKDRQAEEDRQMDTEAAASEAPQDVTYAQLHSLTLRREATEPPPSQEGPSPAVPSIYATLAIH
# UniProt Q15116, residues 25-288: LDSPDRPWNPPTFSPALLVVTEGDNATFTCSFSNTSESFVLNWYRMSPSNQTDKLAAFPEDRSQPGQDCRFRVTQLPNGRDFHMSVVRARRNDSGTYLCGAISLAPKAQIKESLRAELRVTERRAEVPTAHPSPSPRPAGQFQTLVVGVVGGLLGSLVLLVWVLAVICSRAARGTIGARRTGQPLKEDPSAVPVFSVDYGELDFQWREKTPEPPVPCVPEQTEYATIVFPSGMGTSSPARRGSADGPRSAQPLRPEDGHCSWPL
# UniProt P78324, residues 31-504: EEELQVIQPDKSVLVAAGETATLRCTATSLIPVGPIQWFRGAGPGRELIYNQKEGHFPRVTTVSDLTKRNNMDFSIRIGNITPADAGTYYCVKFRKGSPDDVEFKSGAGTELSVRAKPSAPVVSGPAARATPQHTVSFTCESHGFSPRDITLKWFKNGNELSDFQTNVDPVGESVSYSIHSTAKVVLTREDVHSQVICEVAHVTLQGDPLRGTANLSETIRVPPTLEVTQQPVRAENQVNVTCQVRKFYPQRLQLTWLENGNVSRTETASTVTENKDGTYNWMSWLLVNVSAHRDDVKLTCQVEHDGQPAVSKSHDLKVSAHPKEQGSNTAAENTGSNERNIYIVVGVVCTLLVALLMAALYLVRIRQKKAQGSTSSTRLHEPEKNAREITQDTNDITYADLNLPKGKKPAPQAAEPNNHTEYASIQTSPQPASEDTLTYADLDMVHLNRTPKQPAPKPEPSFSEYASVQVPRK
# UniProt P05555, residues 17-1153: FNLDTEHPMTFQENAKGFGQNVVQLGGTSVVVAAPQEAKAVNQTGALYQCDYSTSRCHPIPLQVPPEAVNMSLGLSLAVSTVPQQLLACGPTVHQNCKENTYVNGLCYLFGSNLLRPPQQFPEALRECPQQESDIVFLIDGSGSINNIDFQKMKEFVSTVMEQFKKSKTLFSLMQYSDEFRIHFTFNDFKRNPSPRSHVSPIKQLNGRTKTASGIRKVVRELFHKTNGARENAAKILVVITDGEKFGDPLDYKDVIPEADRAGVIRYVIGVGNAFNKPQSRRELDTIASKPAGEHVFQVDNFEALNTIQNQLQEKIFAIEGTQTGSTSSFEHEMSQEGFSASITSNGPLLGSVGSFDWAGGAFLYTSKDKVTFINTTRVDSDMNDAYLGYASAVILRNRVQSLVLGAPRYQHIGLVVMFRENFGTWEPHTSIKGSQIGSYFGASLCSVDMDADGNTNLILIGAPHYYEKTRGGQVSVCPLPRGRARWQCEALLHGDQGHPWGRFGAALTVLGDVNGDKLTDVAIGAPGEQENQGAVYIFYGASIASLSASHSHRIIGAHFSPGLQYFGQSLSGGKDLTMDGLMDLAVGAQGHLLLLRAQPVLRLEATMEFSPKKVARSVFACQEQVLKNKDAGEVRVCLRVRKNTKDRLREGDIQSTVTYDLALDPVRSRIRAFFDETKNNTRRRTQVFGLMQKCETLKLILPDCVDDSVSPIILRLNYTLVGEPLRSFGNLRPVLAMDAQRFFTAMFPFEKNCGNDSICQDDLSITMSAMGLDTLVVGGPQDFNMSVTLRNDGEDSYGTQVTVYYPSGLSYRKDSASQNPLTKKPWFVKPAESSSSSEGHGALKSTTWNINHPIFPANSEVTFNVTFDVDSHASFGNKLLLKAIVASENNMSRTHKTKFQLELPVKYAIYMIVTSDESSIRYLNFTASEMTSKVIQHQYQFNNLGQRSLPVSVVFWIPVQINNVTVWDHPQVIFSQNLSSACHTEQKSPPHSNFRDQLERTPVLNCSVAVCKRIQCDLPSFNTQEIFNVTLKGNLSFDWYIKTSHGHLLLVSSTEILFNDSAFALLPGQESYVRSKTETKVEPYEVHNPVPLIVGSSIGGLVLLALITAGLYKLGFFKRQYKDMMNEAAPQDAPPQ
# UniProt P11835, residues 24-771: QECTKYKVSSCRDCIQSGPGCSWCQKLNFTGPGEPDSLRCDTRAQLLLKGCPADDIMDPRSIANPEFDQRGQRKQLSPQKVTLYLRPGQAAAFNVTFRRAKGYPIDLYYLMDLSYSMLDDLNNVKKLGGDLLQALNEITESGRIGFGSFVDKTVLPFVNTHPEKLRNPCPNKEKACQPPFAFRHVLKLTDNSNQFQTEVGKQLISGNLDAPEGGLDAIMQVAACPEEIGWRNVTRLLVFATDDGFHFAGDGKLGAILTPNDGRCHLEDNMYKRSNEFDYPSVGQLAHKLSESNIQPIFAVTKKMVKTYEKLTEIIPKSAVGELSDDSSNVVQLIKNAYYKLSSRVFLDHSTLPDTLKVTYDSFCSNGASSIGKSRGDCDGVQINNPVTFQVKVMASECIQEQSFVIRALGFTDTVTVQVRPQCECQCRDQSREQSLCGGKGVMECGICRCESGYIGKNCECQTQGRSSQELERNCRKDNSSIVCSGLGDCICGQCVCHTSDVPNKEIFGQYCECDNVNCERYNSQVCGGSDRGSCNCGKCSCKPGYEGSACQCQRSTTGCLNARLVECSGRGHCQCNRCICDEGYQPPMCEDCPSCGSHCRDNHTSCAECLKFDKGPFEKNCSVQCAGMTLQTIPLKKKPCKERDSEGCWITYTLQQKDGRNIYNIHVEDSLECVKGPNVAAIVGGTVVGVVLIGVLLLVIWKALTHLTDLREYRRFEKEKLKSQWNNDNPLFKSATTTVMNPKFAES
# UniProt P05107, residues 23-769: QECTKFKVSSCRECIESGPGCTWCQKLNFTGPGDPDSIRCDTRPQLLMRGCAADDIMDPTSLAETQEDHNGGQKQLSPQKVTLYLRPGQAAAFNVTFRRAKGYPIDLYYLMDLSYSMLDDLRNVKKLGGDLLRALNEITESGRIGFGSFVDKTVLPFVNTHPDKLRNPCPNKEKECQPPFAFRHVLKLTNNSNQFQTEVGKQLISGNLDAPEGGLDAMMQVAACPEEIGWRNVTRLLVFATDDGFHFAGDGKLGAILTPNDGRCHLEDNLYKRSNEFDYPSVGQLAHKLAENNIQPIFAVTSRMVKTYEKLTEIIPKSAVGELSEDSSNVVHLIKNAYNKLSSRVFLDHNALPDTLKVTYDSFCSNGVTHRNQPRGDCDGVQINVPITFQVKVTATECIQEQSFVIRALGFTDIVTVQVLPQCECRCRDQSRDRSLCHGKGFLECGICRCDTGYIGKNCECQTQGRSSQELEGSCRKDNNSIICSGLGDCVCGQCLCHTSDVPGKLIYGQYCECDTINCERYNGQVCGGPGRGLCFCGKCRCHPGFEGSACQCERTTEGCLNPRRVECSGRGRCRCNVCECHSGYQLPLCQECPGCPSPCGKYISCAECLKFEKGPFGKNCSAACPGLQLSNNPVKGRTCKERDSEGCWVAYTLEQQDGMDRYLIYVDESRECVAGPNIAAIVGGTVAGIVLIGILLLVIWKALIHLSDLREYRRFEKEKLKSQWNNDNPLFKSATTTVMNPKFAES
# Residue numbers refer to the chain shown, from its start. Like-named read-outs stand apart in the source and are kept apart here. These are yes or no findings as the source states them, for the method shown. Binding seen in cells or lysates may run through a third protein. Some entries that bind do so weakly or less than the wild type. For some assays here: Tags and fused reporters may be left off the sequences shown.
# Tests used:
# [1] = target: T1, CLIP-tagged mouse SLAMF7 (donor-labeled SLAMF7) (mouse) (UniProt Q8BHK6); test: FRET or BRET
# T1 sequence (chain, CLIP-Surface 547 on the CLIP tag): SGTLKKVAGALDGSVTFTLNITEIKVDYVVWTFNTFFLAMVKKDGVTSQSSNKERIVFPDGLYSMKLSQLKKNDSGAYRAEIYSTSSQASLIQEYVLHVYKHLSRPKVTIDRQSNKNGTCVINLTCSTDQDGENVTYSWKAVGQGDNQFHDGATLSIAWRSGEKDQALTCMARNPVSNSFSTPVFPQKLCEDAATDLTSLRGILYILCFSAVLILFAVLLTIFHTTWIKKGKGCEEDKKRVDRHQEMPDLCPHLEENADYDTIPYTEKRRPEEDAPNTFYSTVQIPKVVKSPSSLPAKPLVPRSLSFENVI
# [2] = target: T1, CLIP-tagged mouse SLAMF7 (donor-labeled SLAMF7) (mouse); test: FRET or BRET; remark: listed apart in the source
# [3] = target: T2, mouse SIRPα, wild type, re-expressed in SIRPα KO BMDMs (mouse) (UniProt P97797); test: proximity ligation
# T2 sequence: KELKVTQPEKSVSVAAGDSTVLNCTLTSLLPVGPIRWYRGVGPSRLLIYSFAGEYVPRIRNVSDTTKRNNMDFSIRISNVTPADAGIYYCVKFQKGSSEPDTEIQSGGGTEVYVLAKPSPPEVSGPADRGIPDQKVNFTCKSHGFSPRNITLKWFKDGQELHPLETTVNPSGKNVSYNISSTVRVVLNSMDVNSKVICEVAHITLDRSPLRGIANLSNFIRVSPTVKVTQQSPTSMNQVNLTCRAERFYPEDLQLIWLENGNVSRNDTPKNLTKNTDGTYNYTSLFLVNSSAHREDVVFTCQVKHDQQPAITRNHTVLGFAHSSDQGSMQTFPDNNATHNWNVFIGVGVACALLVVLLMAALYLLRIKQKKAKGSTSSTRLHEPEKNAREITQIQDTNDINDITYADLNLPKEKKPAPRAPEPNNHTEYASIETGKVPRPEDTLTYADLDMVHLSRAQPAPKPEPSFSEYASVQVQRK
# [4] = target: T3, mouse SIRPα^T96V in SIRPα KO BMDMs (mouse) (UniProt P97797); test: proximity ligation
# T3 sequence: T2 sequence with T65V
# [5] = target: T4, SIRPα (endogenous, mouse BMDMs) (mouse (endogenous in BMDMs)) (UniProt P97797); test: proximity ligation
# T4 sequence: T2 sequence
# [6] = target: T5, mouse SIRPα^R91T in SIRPα KO BMDMs (mouse) (UniProt P97797); test: proximity ligation
# T5 sequence: T2 sequence with R60T
# [7] = target: T4, SIRPα (endogenous, mouse BMDMs) (mouse (endogenous in BMDMs)); test: co-IP
# [8] = target: CLIP-tagged human LILRB1 (donor-labeled) (human) (UniProt Q8NHL6); test: FRET or BRET
# [9] = target: CLIP-tagged human PD-1 (donor-labeled) (human) (UniProt Q15116); test: FRET or BRET
# [10] = target: T6, CLIP-tagged human 2B4 (SLAMF4) (donor-labeled) (human) (UniProt Q9BZW8); test: FRET or BRET
# T6 sequence (chain, CLIP-Surface 547 on the CLIP tag): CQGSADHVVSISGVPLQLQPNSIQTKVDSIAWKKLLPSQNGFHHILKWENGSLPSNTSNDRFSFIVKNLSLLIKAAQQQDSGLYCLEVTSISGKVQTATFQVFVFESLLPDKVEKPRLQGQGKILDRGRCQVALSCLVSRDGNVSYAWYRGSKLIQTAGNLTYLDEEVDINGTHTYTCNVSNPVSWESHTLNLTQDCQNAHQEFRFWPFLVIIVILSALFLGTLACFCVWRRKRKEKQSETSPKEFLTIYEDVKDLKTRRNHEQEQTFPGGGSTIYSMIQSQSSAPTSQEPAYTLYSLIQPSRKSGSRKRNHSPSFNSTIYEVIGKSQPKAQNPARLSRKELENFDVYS
# [11] = target: CLIP-tagged human SIRPα version (V) 1 (donor-labeled) (human) (UniProt P78324); test: FRET or BRET
substance,measurement,setting,value
SNAP-tagged mouse CD11b (acceptor-labeled CD11b) (from UniProt P05555 17-1153) (receptor),binding,[1],no binding (condition: with CD11b mAbs)
same,binding,[2],binds
"CD18 (β2 integrin) (endogenous, mouse BMDMs) (from UniProt P11835 24-771) (receptor)",binding,[3],binds
same,binding,[4],binds
same,binding,[5],binds
same,binding,[6],no binding
same,binding,[7],binds
SNAP-tagged human CD18 (acceptor-labeled human CD18) (from UniProt P05107 23-769) (receptor),binding,[8],binds
same,binding,[9],binds
same,binding,[10],binds
same,binding,[11],binds
